No constants are given. Whether binding was seen depends on the method and setting. Binding seen in cells or lysates may run through a third protein. Here binding means that the protein was enriched with, or labelled near, the bait; the list need not be complete. Where a sequence is shown, tags or fusion partners need not be part of it.

Protein sequences, listed by entry. Tags and fused reporters are not part of them. Residues count along the entry.
UniProt P25705, residues 44-553: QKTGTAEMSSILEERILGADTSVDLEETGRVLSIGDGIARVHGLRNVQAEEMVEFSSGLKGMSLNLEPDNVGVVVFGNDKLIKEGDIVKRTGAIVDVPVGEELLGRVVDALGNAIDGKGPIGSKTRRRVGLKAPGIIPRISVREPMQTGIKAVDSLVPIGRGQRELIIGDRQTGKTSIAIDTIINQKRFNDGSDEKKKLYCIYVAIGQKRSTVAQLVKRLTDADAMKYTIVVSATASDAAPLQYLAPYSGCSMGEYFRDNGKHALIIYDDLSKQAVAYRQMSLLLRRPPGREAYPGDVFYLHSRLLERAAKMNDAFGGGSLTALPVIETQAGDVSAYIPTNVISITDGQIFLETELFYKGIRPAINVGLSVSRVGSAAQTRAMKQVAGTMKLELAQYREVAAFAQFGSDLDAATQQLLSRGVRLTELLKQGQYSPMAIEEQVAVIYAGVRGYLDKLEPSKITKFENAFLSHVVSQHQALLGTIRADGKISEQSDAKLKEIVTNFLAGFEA
UniProt O75947: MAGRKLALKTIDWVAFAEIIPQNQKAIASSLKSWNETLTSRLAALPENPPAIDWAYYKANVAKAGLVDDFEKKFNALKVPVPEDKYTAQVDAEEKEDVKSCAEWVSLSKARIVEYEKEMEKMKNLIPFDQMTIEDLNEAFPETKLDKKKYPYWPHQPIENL

T1: MC089-FLAG (molluscum contagiosum virus protein MC089, C-terminal FLAG tag, pMEP4, CdCl2-inducible) (Molluscum contagiosum virus subtype 1) (UniProt Q98256)
T1 sequence: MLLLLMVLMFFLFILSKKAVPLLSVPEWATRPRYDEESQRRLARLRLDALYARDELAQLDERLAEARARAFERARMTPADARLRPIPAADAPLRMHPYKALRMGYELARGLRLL

B1: ATP5J (mitochondrial ATP synthase subunit) (protein, UniProt P18859 33-108)
chain: NKELDPIQKLFVDKIREYKSKRQTSGGPVDASSEYQQELERELFKLKQMFGNADMNTFPTFKFEDPKFEVIEKPQA
B2: ATP5F1 (mitochondrial ATP synthase subunit) (protein, UniProt P24539 43-256)
chain: PVPPLPEYGGKVRYGLIPEEFFQFLYPKTGVTGPYVLGTGLILYALSKEIYVISAETFTALSVLGVMVYGIKKYGPFVADFADKLNEQKLAQLEEAKQASIQHIQNAIDTEKSQQALVQKRHYLFDVQRNNIAMALEVTYRERLYRVYKEVKNRLDYHISVQNMMRRKEQEHMINWVEKHVVQSISTQQEKETIAKCIADLKLLAKKAQAQPVM
B3: ATP5O (mitochondrial ATP synthase subunit) (protein, UniProt P48047 24-213)
chain: FAKLVRPPVQVYGIEGRYATALYSAASKQNKLEQVEKELLRVAQILKEPKVAASVLNPYVKRSIKVKSLNDITAKERFSPLTTNLINLLAENGRLSNTQGVVSAFSTMMSVHRGEVPCTVTSASPLEEATLSELKTVLKSFLSQGQVLKLEAKTDPSILGGMIVRIGEKYVDMSVKTKIQKLGRAMREIV

In this assay the target is T1, MC089-FLAG (molluscum contagiosum virus protein MC089, C-terminal FLAG tag, pMEP4, CdCl2-inducible) (Molluscum contagiosum virus subtype 1). Description: affinity purification with mass spectrometry; stable CdCl2-induced MEP4-MC089-FLAG HEK293T cells against pMEP4 empty vector cells, n=4; TAP lysis buffer (50 mM Tris-HCl pH 7.5, 0.2% NP-40, 100 mM NaCl), anti-FLAG M2 affinity gel 1 h at 4 °C; LC-MS/MS, label-free quantification, FDR 0.01.
For the molecule “ATP5B (mitochondrial ATP synthase subunit) (from UniProt P06576 48-529)”, the binding entry was “binds”.

On to “ATP5A1 (mitochondrial ATP synthase subunit) (from UniProt P25705 44-553)”, for which the binding result was “binds”.

In the case of “ATP5H (mitochondrial ATP synthase subunit) (from UniProt O75947 1-161)”, the binding entry was “binds”.

With B1, the binding entry is given as “binds”.

With B2, the binding result is “binds”.

In the case of B3, the binding entry is recorded as “binds”.

For the origin of these results see PMC11338640.
